Reference: the OPERA property sets (Mansouri et al. 2018)

logP: -0.17
SMILES: C1CN=C2CCCN2C1
